PubChem BioAssay AID1259424 – University of Nebraska Medical Center, 2018

Aim: 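Seek colon cancer survival genes behaving like KSR1, using a six-gene signature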 (primary screen)
System: human HCT116 colon cancer cells
Reagent: siRNA pool against human genes, 50 nM
Measured: 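Log2 levels of six mRNAs (branched-DNA multiplex), adjusted by two reference genes and the non-targeting median, then scored against the average KSR1 knockdown pattern as Pearson r and euclidean distance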
Reading the numbers: mean correlation with KSR1 profile: higher = expression change more like KSR1 knockdown; mean distance from KSR1 profile: higher = expression change less like KSR1 knockdown
Here is an unselected part of about 14,000 reagents tested. 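Higher correlation or smaller distance means closer resemblance to KSR1 loss; control wells, including KSR1 knockdowns, recur on many plates.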 Further read-outs or replicates are left out here. Not given: the time to read-out.

The first 3 records, to show the layout:
| Gene | mean correlation with KSR1 profile | mean distance from KSR1 profile |
| --- | --- | --- |
| NDUFS2 (NADH:ubiquinone oxidoreductase core subunit S2) | 0.12 | 1.76 |
| EIF3G (eukaryotic translation initiation factor 3 subunit G) | -0.45 | 2.65 |
| DAB2 (DAB adaptor protein 2) | -0.613 | 3.83 |

Results, from the start:
| Gene | mean correlation with KSR1 profile | mean distance from KSR1 profile |
| --- | --- | --- |
| NDUFS2 (NADH:ubiquinone oxidoreductase core subunit S2) | 0.12 | 1.76 |
| EIF3G (eukaryotic translation initiation factor 3 subunit G) | -0.45 | 2.65 |
| DAB2 (DAB adaptor protein 2) | -0.613 | 3.83 |
| C14orf93 (chromosome 14 open reading frame 93) | 0.6 | 3.32 |
| OR2B2 (olfactory receptor family 2 subfamily B member 2) | 0.728 | 1.19 |
| NTN3 (netrin 3) | -0.367 | 3.85 |
| FBXO2 (F-box protein 2) | -0.131 | 1.91 |
| BMS1 (BMS1 ribosome biogenesis factor) | -0.226 | 2.53 |
| IL26 (interleukin 26) | 0.17 | 1.04 |
| SCRG1 (stimulator of chondrogenesis 1) | -0.508 | 2.63 |
| MFF (mitochondrial fission factor) | -0.863 | 2.59 |
| SELPLG (selectin P ligand) | -0.41 | 2.3 |
| FADS2 (fatty acid desaturase 2) | 0.42 | 1.62 |
| CCL27 (C-C motif chemokine ligand 27) | -0.201 | 1.31 |
| GPC1 (glypican 1) | -0.376 | 2.88 |
| RMND5B (required for meiotic nuclear division 5 homolog B) | -0.41 | 2.41 |
| MDFI (MyoD family inhibitor) | 0.378 | 2.19 |
| CLCA1 (chloride channel accessory 1) | 0.112 | 1.88 |
| ABCC10 (ATP binding cassette subfamily C member 10) | -0.185 | 2.01 |
| REG3A (regenerating family member 3 alpha) | 0.417 | 1.87 |
| KRT31 (keratin 31) | -0.607 | 2.91 |
| SMC1A (structural maintenance of chromosomes 1A) | -0.322 | 3.5 |
| DOCK6 (dedicator of cytokinesis 6) | -0.74 | 1.96 |
| SMPD4 (sphingomyelin phosphodiesterase 4) | -0.44 | 2.03 |
| WDR3 (WD repeat domain 3) | 0.439 | 6.51 |
| INTU (inturned planar cell polarity protein) | 0.0447 | 1.71 |
| WNT4 (Wnt family member 4) | 0.367 | 2.13 |
| LONP2 (lon peptidase 2, peroxisomal) | 0.273 | 1.82 |
| CRX (cone-rod homeobox) | 0.0465 | 3.43 |
| ENTPD3 (ectonucleoside triphosphate diphosphohydrolase 3) | -0.24 | 1.81 |
| ATOH8 (atonal bHLH transcription factor 8) | 0.209 | 2.51 |
| CD226 (CD226 molecule) | 0.131 | 2.56 |
| SCAPER (S-phase cyclin A associated protein in the ER) | 0.0811 | 1.41 |
| TMEM60 (transmembrane protein 60) | 0.47 | 2.64 |
| RDX (radixin) | 0.194 | 1.62 |
| DCLK1 (doublecortin like kinase 1) | -0.41 | 2.53 |
| GALNT16 (polypeptide N-acetylgalactosaminyltransferase 16) | -0.411 | 2.39 |
| HDAC5 (histone deacetylase 5) | -0.5 | 0.908 |
| FAM13A (family with sequence similarity 13 member A) | -0.00875 | 2.39 |
| NUP93 (nucleoporin 93) | 0.239 | 1.76 |
| CCDC62 (coiled-coil domain containing 62) | -0.0169 | 2.54 |
| MRPS18C (mitochondrial ribosomal protein S18C) | -0.615 | 3.43 |
| IFITM3 (interferon induced transmembrane protein 3) | 0.0194 | 1.82 |
| ACSS3 (acyl-CoA synthetase short chain family member 3) | 0.844 | 0.866 |
| HECTD3 (HECT domain E3 ubiquitin protein ligase 3) | 0.323 | 3.61 |
| IP6K3 (inositol hexakisphosphate kinase 3) | -0.21 | 3.48 |
| IRF8 (interferon regulatory factor 8) | 0.625 | 1.73 |
| KIR3DL2 | -0.0389 | 1.24 |
| NEK9 (NIMA related kinase 9) | 0.664 | 1.67 |
| NDUFAF3 (NADH:ubiquinone oxidoreductase complex assembly factor 3) | -0.487 | 4.38 |
